Among the data in the supplement of paper PMC6411743 are NP40-soluble protein abundance values, retold here.

By UniProt entry, the sequences of proteins in these tests, tags left out.
UniProt P54709, whole entry: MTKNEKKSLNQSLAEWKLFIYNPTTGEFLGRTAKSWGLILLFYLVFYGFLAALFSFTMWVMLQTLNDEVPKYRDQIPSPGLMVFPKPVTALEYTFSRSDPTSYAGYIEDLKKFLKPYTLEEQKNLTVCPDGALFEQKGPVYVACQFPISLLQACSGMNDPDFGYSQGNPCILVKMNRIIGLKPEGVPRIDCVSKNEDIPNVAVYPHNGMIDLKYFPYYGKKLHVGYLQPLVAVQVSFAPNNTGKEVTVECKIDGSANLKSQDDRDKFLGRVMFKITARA

The target of this assay is ATP1B3 (UniProt P54709). In words: NP40-soluble protein abundance relative to vehicle (solubility fold change) (ratio); higher = more soluble protein in presence of AMP-PNP. A digest of the protocol:
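Data come from three independent experiments in which Dounce-homogenised Jurkat crude lysate was treated at eight concentrations from 0.1 to 10 mM. Treatment ran 10 min at room temperature and then 3 min at 37 °C, after which 0.8% NP40 and benzonase were added for 60 min at 4 °C before ultracentrifugation. The supernatant underwent TMT labelling and LC-MS/MS, and vsn-normalised intensities were expressed as fold change against the detergent-processed vehicle in each replicate.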

± gives the standard deviation of the averaged measurements. The entries are a selection whose mix differs from that of the whole data set.

For `Nc1ncnc2c1ncn2[C@@H]1O[C@H](COP(=O)(O)OP(=O)(O)NP(=O)(O)O)[C@@H](O)[C@H]1O` [adenylyl imidodiphosphate], the NP40-soluble protein abundance (concentration: 1mM) turned out to be 1.01 ± 0.015; the NP40-soluble protein abundance (concentration: 2mM) was determined as 1.04 ± 0.063; the NP40-soluble protein abundance (concentration: 4mM) came to 0.9722 ± 0.004; the NP40-soluble protein abundance (concentration: 6mM) is 1.01 ± 0.013; the NP40-soluble protein abundance (concentration: 8mM) was determined as 0.975 ± 0.011; the NP40-soluble protein abundance (concentration: 10mM) came to 1 ± 0.024.
